Test results taken from PubChem BioAssay AID1671190 (National Center for Advancing Translational Sciences (NCATS), 2021).
Out of some 580,000 compounds screened, about 6,100 (1.1%) were called active. This list was built around the results that the source calls inconclusive (neither active nor inactive); the mix of calls is not that of the screen. Calls come from the whole dose curve; as a rule, active = well fitted inhibition curve with a large enough effect; inconclusive = small, poorly fitted or top-dose-only effect, or another doubt; inactive = no such curve, though single readings can be large or run the other way. A potency beside an inconclusive call is a rough fit, not a confirmed value.

Chains of the proteins cited; added tags and fusions are not shown.
UniProt P18054, whole entry, looked up: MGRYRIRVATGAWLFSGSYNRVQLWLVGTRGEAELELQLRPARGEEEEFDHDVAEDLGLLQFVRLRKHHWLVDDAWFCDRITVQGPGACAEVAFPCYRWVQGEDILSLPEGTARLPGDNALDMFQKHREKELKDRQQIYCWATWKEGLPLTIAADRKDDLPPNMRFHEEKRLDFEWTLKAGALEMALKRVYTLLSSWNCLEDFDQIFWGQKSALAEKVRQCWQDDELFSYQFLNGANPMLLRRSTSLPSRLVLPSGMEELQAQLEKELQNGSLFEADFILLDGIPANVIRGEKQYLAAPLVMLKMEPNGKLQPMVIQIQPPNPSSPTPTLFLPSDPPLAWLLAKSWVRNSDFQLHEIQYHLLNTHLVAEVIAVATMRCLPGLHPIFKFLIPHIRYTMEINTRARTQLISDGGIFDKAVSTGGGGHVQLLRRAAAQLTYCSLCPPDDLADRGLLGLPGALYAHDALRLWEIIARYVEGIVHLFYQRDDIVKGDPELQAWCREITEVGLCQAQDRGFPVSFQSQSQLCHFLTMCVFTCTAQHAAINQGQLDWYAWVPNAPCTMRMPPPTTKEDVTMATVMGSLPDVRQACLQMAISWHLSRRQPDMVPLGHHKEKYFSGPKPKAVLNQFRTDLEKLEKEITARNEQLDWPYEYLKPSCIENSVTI

The molecules below were run against Polyunsaturated fatty acid lipoxygenase ALOX12 (Homo sapiens) (UniProt P18054) (assay: Primary qHTS assay for inhibitors of human arachidonate 12S-lipoxygenase (ALOX12): Round 2). Conditions: purified 12hLO, xylenol orange hydroperoxide absorbance; activity change, negative = inhibition: at 108 µM (top of the series) unless noted.
In short: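 Hydroperoxide product was detected by ferrous iron/xylenol orange as the 573 to 405 nm absorbance ratio. Arachidonic acid at 40 uM (final) was turned over for 30 min at room temperature by 150 nM human 12hLO, pH 7.0 Hepes buffer, after 15 min compound preincubation.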
% is set by controls: 0 for no effect and ±100 for the full control effect; potency is the fitted concentration of half-maximal effect.

Structure (SMILES) | Potency | activity change, negative = inhibition
CCCOc1cccc(C2C(C(=O)c3ccc(C)o3)=C(O)C(=O)N2c2nc(C)c(C(C)=O)s2)c1 (stereo not given) | active: 1.26 µM | 
Cc1ccc(C(=O)Cn2cnc3c2c(=O)n(C)c(=O)n3C)cc1C | inactive | 
Fc1ccccc1CNc1nc(NCC2CC2)nc2ccsc12 | inconclusive: 44.7 µM [inhibitor, partial curve, poor fit] | 
O=C(Nc1cccc(N2C(=O)C3C4C=CC(C4)C3C2=O)c1)c1cccs1 (stereo not given) | inactive | 
O=C1OC(c2ccco2)=N/C1=C\c1ccc(-c2cccc(C(F)(F)F)c2)o1 | inconclusive: 44.7 µM [inhibitor, partial curve, poor fit] | 
CCOC(=O)C1=C(C)NC2=C(C(=O)c3ccccc32)C1c1cccnc1 (stereo not given) | inconclusive: 31.6 µM [inhibitor, full curve, poor fit] | 
N#Cc1ccccc1NC(=O)COC(=O)C1CCN(C(=O)c2ccc(Cl)cc2)CC1 | inconclusive: 126 µM [inhibitor, single point] | 
O=C(CCc1nc2ccccc2c(=O)[nH]1)N1CCCC1CC1CCCCC1 (stereo not given) |  | inconclusive: -54.5% [inhibitor]
COc1ccc(OCC(=O)Nc2ccc(C(=O)Nc3ccccc3C(=O)O)cc2)cc1 | inconclusive: 6.31 µM [inhibitor, full curve, poor fit] | 
O=C(C1CC1)N1CCC(c2nc(C3CCOCC3)no2)C1 (stereo not given) | inactive | 
Cc1cccc(C)c1-n1nnnc1C1c2ccccc2C(=O)N1CCc1ccc(O)cc1 (stereo not given) | inconclusive: 89.1 µM [inhibitor, single point] | 
CN1C[C@@H](NC(=O)c2ccc(C(C)(C)C)cc2)C[C@H]1c1nc(-c2ccc3c(c2)OCO3)no1 | inconclusive: 44.7 µM [inhibitor, partial curve, poor fit] | 
O=[N+]([O-])c1nn(-c2ccc(Cl)cc2)n(O)c1=NCc1ccccc1Cl | inactive | 
COc1ccc(-c2nsc(NC(=O)C(C)Oc3ccc(Cl)c(C)c3)n2)cc1 (stereo not given) | inactive | 
COC(=O)c1cc(OC(C)C)ccc1NC(=O)[C@@]1(Sc2ccc(OC)cc2)CC(=O)N[C@@H]1c1ccc(OC)cc1 | inactive | 
Cc1nn(CCc2nnc(Nc3ccn(Cc4ccccc4Cl)n3)s2)c(C)c1Cl | inactive | 
COc1ccccc1NC(=O)C1=C(C)Nc2nnnn2C1c1cc(Br)c(O)c(OC)c1 (stereo not given) |  | inconclusive: -34.8% [inhibitor]
C#CCOc1c(Br)cc(/C=C2/C(=O)ON=C2C)cc1OCC | active: 11.2 µM | 
COc1cc2cc(C(c3nnnn3Cc3ccc(F)cc3)N3CCCCCC3)c(=O)[nH]c2cc1OC (stereo not given) | inconclusive: 44.7 µM [inhibitor, partial curve, poor fit] | 
COc1cccc(NC(=O)N2CCc3nc(Nc4cc(Cl)cc(Cl)c4)ncc3C2)c1 | inconclusive: 100 µM [inhibitor, single point] | 
O=C(NC1CCC(C(F)(F)F)CC1)c1ccc(Cl)nc1 (stereo not given) | inactive | 
CCn1cc(C(=O)NCc2ccc3c(c2)OCO3)c(=O)c2cc(F)c(N3CCN(C(=O)c4ccco4)CC3)cc21 | inconclusive: 25.1 µM [inhibitor, partial curve, poor fit] | 

Structure (SMILES) | Potency | activity change, negative = inhibition
O=C1CC2CCCC(C1)N2C(=O)c1cccc(Br)c1 | inactive | 
CCOC(=O)N1CCC(NC(=O)CCN2C(=O)COc3ccccc32)CC1 | inactive | 
Cc1nc2c(c(-c3ccc(O)cc3)n1)CN(Cc1ccsc1)CC2 | inconclusive: 10 µM [inhibitor, full curve, poor fit] | 
O=C(CSc1nc2ccccc2s1)Nc1ccc(F)c(F)c1F | inconclusive: 17.8 µM [inhibitor, full curve] | 
COC(=O)c1cc(NC(=O)c2ccc(OC(F)F)c(OC)c2)c(F)cc1F | inconclusive: 112 µM [inhibitor, single point] | 
COc1ccc(OC)c2c1C(=O)C(Cl)=C(Cl)C2=O | inconclusive: 3.16 µM [inhibitor, full curve, poor fit] | 
Cn1cc(-c2ccccc2C(N)=O)c(=O)c2cc(Cl)ccc21 | inactive | 
Cc1ccc(CN2C(=O)C3(c4ccccc42)N(c2cccc(C(F)(F)F)c2)C(=O)CS3(=O)=O)cc1 (stereo not given) | inconclusive: 100 µM [inhibitor, single point] | 
Cc1ccc(S(=O)(=O)Nc2ccccc2/C=N/c2nc3ccccc3n2C(C)C)cc1 | inconclusive: 79.4 µM [inhibitor, single point] | 
CCCCSCCCNC(=O)Nc1ccc(C)c(C)c1 | inconclusive: 44.7 µM [inhibitor, partial curve] | 
COc1ccc2oc(=O)c(-c3nc(-c4ccccc4C)no3)cc2c1 | inconclusive: 28.2 µM [inhibitor, partial curve, poor fit] | 
COc1ncc(-c2n[nH]c3c2CC(=O)N(Cc2ccccc2)C3)cn1 | inconclusive: 15.8 µM [inhibitor, full curve, poor fit] | 
Cc1nc2sc(C(c3ccco3)N3CCN(c4ccccc4)CC3)c(O)n2n1 (stereo not given) | inactive | 
COc1ccc(C2C(C(C)=O)=C(O)C(=O)N2c2ccc(Br)cc2)cc1 (stereo not given) | inconclusive: 35.5 µM [inhibitor, partial curve, poor fit] | 
Fc1ccc(CN2CCCN(c3nnnn3-c3ccccc3)CC2)cc1 | inactive | 
COc1ccc(NS(=O)(=O)c2ccc(NC(=S)NC(=O)c3cccnc3)cc2)nn1 | inconclusive: 44.7 µM [inhibitor, partial curve, poor fit] | 
N#Cc1ccc(-c2nc3c(Cl)cc(C(F)(F)F)cn3c2Cc2ccccc2C(F)(F)F)cc1 | inconclusive: 39.8 µM [inhibitor, partial curve, poor fit] | 
COC(=O)c1ccc(/C=C(/C#N)C(=O)Nc2cccc(OC)c2)cc1 | inconclusive: 112 µM [inhibitor, single point] | 
COCC#Cc1ccc2c(c1)O[C@H](CN(C)C(=O)c1ccccc1)[C@@H](C)CN([C@H](C)CO)S2(=O)=O | inactive | 
C=CCNc1ccc(C(F)(F)F)cn1 | inconclusive: 28.2 µM [inhibitor, single point] | 
COc1ccc(C(=O)NC(=S)Nc2cccnc2)cc1OC | inactive | 
CCNC(=S)SCCOc1ccc(C)cc1 | inconclusive: 56.2 µM [inhibitor, partial curve, poor fit] | 

Random excerpt: four entries already listed, in no set order.
Structure (SMILES) | Potency | activity change, negative = inhibition
O=C1CC2CCCC(C1)N2C(=O)c1cccc(Br)c1 | inactive | 
COCC#Cc1ccc2c(c1)O[C@H](CN(C)C(=O)c1ccccc1)[C@@H](C)CN([C@H](C)CO)S2(=O)=O | inactive | 
COc1cc2cc(C(c3nnnn3Cc3ccc(F)cc3)N3CCCCCC3)c(=O)[nH]c2cc1OC (stereo not given) | inconclusive: 44.7 µM [inhibitor, partial curve, poor fit] | 
COc1ccc(OC)c2c1C(=O)C(Cl)=C(Cl)C2=O | inconclusive: 3.16 µM [inhibitor, full curve, poor fit] | 

Following part

Structure (SMILES) | Potency | activity change, negative = inhibition
CS(=O)(=O)NC[C@H]1Cn2c(-c3ccc(F)cc3)cnc2CO1 | inactive | 
COc1cc(NC(=O)CSc2nc3[nH]c(=O)cc(O)c3s2)cc(OC)c1OC | inconclusive: 56.2 µM [inhibitor, partial curve, poor fit] | 
CCN(CC)Cc1c(O)ccc2c([N+](=O)[O-])c(C)n(-c3ccc(OC)cc3)c12 | inconclusive: 2 µM [inhibitor, partial curve, poor fit] | 
CC(C)(C)NC(=O)C[C@@H]1CCNC[C@@H]1Cc1cc(-c2ccc(F)cc2)on1 | inconclusive: 39.8 µM [inhibitor, full curve] | 
S=C(NCc1ccc(Cl)cc1)NC1CCCCC1 | inconclusive: 44.7 µM [inhibitor, partial curve, poor fit] | 
CC12CCC(=O)N1C(C(=O)Nc1cccc(S(=O)(=O)N3CCCCCC3)c1)CS2 (stereo not given) | inconclusive: 112 µM [inhibitor, partial curve, poor fit] | 
CCCN(c1ccc(OCC)cc1)S(=O)(=O)c1ccc2c(c1)NC(=O)CO2 | inconclusive: 35.5 µM [inhibitor, partial curve, poor fit] | 
O=C(C[C@@H]1CCNC[C@@H]1Cc1cc(COc2ccccc2)on1)Nc1ccccc1 | inconclusive: 35.5 µM [inhibitor, full curve] | 
CCN1C(=O)[C@H]2[C@@H](c3ccc(OC)cc3)N[C@]3(CCCN(Cc4ccco4)C3=O)[C@H]2C1=O | inconclusive: 20 µM [inhibitor, full curve] | 
O=C(c1ccccc1)N1CCC(c2nn(-c3ccc(F)cc3)c(=O)[nH]2)CC1 | inactive | 
CSCCC(NC(=O)C1CC1)c1nc2ccccc2[nH]1 (stereo not given) | inconclusive: 100 µM [inhibitor, partial curve, poor fit] | 
O=C(NC1CCCCC1)c1ccc2c(c1)N(Cc1ccc(Cl)cc1)C(=O)c1ccccc1S2(=O)=O | inactive | 
CCC(=O)N(C1=C(NC)C(=O)c2ccccc2C1=O)C(C)C | inactive | 
Cc1c(N)ccc(-n2nc3ccccc3n2)c1C | inconclusive: 89.1 µM [inhibitor, partial curve, poor fit] | 
O=C(O)CCCc1c(-c2ccccn2)[nH]c2ccc(Cl)cc12 | inconclusive: 28.2 µM [inhibitor, single point] | 
CCOc1ccc(CCNC(=O)COC(=O)c2ccc(S(=O)(=O)N3CCCC3)cc2)cc1OCC | inconclusive: 70.8 µM [inhibitor, partial curve, poor fit] | 
COc1ccc(C2CC(c3ccccc3F)=NN2c2ccc(S(N)(=O)=O)cc2)cc1 (stereo not given) | inconclusive: 63.1 µM [inhibitor, partial curve, poor fit] | 
O=C(O)c1cccc(S(=O)(=O)Nc2ccc(O)cc2Sc2nc3ccccc3s2)c1 | inconclusive: 44.7 µM [inhibitor, partial curve, poor fit] | 
COc1cc(CNCC(O)c2ccccc2)ccc1Oc1nnnn1-c1ccccc1 (stereo not given) | inconclusive: 56.2 µM [inhibitor, full curve, poor fit] | 
CN(CC(=O)Nc1ccc(Cl)c(C(F)(F)F)c1)C(=O)CCCNC(=O)c1ccc(Cl)cc1 | inactive | 
CCOc1cc(/C=N/N=C(\N)c2nonc2N)cc(Br)c1OCc1cccc2ccccc12 | inactive | 
